Reference: PMC7819943, “Rice protein-binding microarrays: a tool to detect cis-acting elements near promoter regions in rice”
The other results are listed elsewhere or left out.

By UniProt entry, the sequences of proteins in these tests, tags left out.
UniProt Q0JBA9, entry or part of it: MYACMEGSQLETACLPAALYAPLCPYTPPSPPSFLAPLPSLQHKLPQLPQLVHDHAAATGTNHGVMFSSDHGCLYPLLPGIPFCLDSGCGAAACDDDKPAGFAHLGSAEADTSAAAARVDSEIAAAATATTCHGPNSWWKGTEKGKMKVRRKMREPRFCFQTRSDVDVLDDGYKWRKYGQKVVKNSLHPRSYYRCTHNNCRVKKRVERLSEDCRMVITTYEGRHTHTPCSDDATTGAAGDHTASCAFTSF

Molecular target: OsWRKY34 (Oryza sativa, UniProt Q0JBA9 1-250)
Test: protein-binding microarray (RPBM); PBS, 2% BSA, 51.3 ng/ul salmon testes DNA, 50 uM zinc acetate, 200 nM TF, 25 C, 1 h; high values mean tight binding
Details: protein: recombinant; tags: N-terminal polyhistidine and DsRed monomer fusion (pET32a); label: CyDye5-dUTP incorporated in the synthesized complementary strand; 3' TTTTT single-stranded linker to array surface; dsDNA, one strand shown
In short: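 For the binding signal, per-feature fluorescence intensity was read in arbitrary units on an Axon 4000B scanner. Before scanning, a 2% BSA-blocked custom Agilent array made double-stranded with Cy5-dUTP was washed after 1 h at 25 °C with 200 nM protein and 50 µM zinc acetate. The proteins were Ni–NTA-purified transcription factors with N-terminal polyhistidine and DsRed fusions, expressed in E. coli BL21-CodonPlus.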

Row | Sequence | binding signal
1 | GCTCCTATGCTGCTTGGTTGTTTTCACAAGAATTTCTTGGCGGAGTCACCTAGTGCAG | 8610 fluorescence intensity (a.u.)
2 | CGCCTTCGCCTTGCTCGTCTTCGTCTCCGCCTCCTGCGACCGGAGTCACCTAGTGCAG | 8380 fluorescence intensity (a.u.)
3 | TCATCTTCTCCTTTCTTTGCTTTCACATCTGGATAACTCTCGGAGTCACCTAGTGCAG | 8750 fluorescence intensity (a.u.)
4 | AATACTACCTATCCACCATACTCTCAGCCACCTACTTTCTCGGAGTCACCTAGTGCAG | 8430 fluorescence intensity (a.u.)
5 | AAAAGTGTCGTTCTATGTCCTCAGTAGTGTCCCATAAAAACGGAGTCACCTAGTGCAG | 8260 fluorescence intensity (a.u.)
6 | CAGTGGGCGGTAAGGGTGTTAGGTGTAAAAAAGCAATCGGCGGAGTCACCTAGTGCAG | 8180 fluorescence intensity (a.u.)
7 | CTGTGCATTGTTTTTCATACTGTTTTCATTGTATCCAACTCGGAGTCACCTAGTGCAG | 12200 fluorescence intensity (a.u.)
8 | GGGGTTTTATCCTTGTATTGTTGCTTTGGTTTGGTTTTTGCGGAGTCACCTAGTGCAG | 9830 fluorescence intensity (a.u.)
9 | TGATCTGATCTGACAATTTGGGCGGGCTGTGTTTTATGAACGGAGTCACCTAGTGCAG | 12900 fluorescence intensity (a.u.)
10 | CTCTCCAACAACTTCACTATTTCACTCTCCAAACCATATTCGGAGTCACCTAGTGCAG | 8070 fluorescence intensity (a.u.)
11 | AGGGTTGACAGGGGCATTTTCGCATTTTATGAAAATACTGCGGAGTCACCTAGTGCAG | 8140 fluorescence intensity (a.u.)
12 | ACAACTTTCGCCTCACCTCGAGTCTCATAACACAGACACACGGAGTCACCTAGTGCAG | 8090 fluorescence intensity (a.u.)
13 | TAGATCGCGCATTGTGTTTTGATTTGTGGTTGTTCGTGTACGGAGTCACCTAGTGCAG | 9560 fluorescence intensity (a.u.)
14 | CTCGCGCCATCTCTCCTCTTCTCTCTCTCTCTCTAAACCACGGAGTCACCTAGTGCAG | 8860 fluorescence intensity (a.u.)
15 | ATTTTCTCGCGCCACGTTTAAATCGTTTTTATTTAAATTTCGGAGTCACCTAGTGCAG | 9620 fluorescence intensity (a.u.)
16 | GTCATCTTCTATTGGCTGCATCGATCTCGAATTATTACTTCGGAGTCACCTAGTGCAG | 8580 fluorescence intensity (a.u.)
17 | TGTCAGCATTTCTTGGTTTTCTTCTCCTGCTTGTTTCCTTCGGAGTCACCTAGTGCAG | 8800 fluorescence intensity (a.u.)
18 | GCCGTCGTCGTGGTCTCCGTTCTGCTTCGTTTTTTTACCGCGGAGTCACCTAGTGCAG | 10200 fluorescence intensity (a.u.)
19 | ATACTGTTGCGCTGCTCTTTATGTTGATTATTTATTTTTCCGGAGTCACCTAGTGCAG | 11400 fluorescence intensity (a.u.)
20 | TTAATGATCTTTCTTTTTTCGCTTGCCTTGAAAATCTTCGCGGAGTCACCTAGTGCAG | 9400 fluorescence intensity (a.u.)
21 | CTACCATAGTACTACCATCTCTCTCTTTCTCTCTCCTCAACGGAGTCACCTAGTGCAG | 11800 fluorescence intensity (a.u.)

Row | Sequence | binding signal
22 | TCGCGATCTCCGTGTCCCGCCCGCCGTCCATCGACCTCTGCGGAGTCACCTAGTGCAG | 9900 fluorescence intensity (a.u.)
23 | GGGATTCAGTTGCTTTGACTTTTCTCCCCTCATATCGTTCCGGAGTCACCTAGTGCAG | 15700 fluorescence intensity (a.u.)
24 | CCTATGTATGATCACGTCTCCTTCTGTTCTTGGTCTGTCACGGAGTCACCTAGTGCAG | 10500 fluorescence intensity (a.u.)
25 | CACCAAAAATTGGCCTTGTCAACCACAACTTTTTTCCATACGGAGTCACCTAGTGCAG | 9310 fluorescence intensity (a.u.)
26 | CAACGAGGAGCGATGCATATCTAGCAGTTTTGTTTTTCATCGGAGTCACCTAGTGCAG | 8420 fluorescence intensity (a.u.)
27 | GTCTTTTTAAAATTTCTCTCCCATCTTTTTTATTAAAAAACGGAGTCACCTAGTGCAG | 8610 fluorescence intensity (a.u.)
28 | AAACTAATATATGTTATCAACTTCTACTCACTTGTTTTTCCGGAGTCACCTAGTGCAG | 8420 fluorescence intensity (a.u.)
29 | GCTAGTCAAATTTGCCTTACTAACTGCTCCGCGTAATTATCGGAGTCACCTAGTGCAG | 8500 fluorescence intensity (a.u.)
30 | GGCCGGTGATCCTTCCTTAATTTCCCTATCTAGCTTTGTCCGGAGTCACCTAGTGCAG | 11600 fluorescence intensity (a.u.)
31 | ACCAGGGCACATCCAGTGAAAGTCAAGCTTCCCTTGCCGTCGGAGTCACCTAGTGCAG | 8550 fluorescence intensity (a.u.)
32 | ATCACCATTTACTCCTATTGCCCTATTGGCATCACATCCACGGAGTCACCTAGTGCAG | 8890 fluorescence intensity (a.u.)
33 | GTGTTTGTGCTTCAGTTAACACCGTTACATGTTCTTAACACGGAGTCACCTAGTGCAG | 8160 fluorescence intensity (a.u.)
34 | AGCCGGATCACTTTGATGTCATCTTCAATCATACCATTTTCGGAGTCACCTAGTGCAG | 8630 fluorescence intensity (a.u.)
35 | GCCTCATCCCGTTGCCATCTCCAAGAGCTCGCCTGCCACTCGGAGTCACCTAGTGCAG | 8840 fluorescence intensity (a.u.)
36 | ATAATGCATGCCTAGGCTCGAGTTCTTTGTGCATTTGGAGCGGAGTCACCTAGTGCAG | 8860 fluorescence intensity (a.u.)
37 | TTCGTGTTTTGCTGGAGTTGGAGTTGCTGCATTGGGTTTACGGAGTCACCTAGTGCAG | 10700 fluorescence intensity (a.u.)
38 | GGCAAACAATGCTCTCAGCCTCGCTTAGCTTTCACTCCACCGGAGTCACCTAGTGCAG | 8030 fluorescence intensity (a.u.)
39 | CATGCACGGTAACTTTTTCAGTTTTTAAATCTACAGTATGCGGAGTCACCTAGTGCAG | 8610 fluorescence intensity (a.u.)
40 | TCATTTATAAATATACCATTTCGCTTATTGTCCCCATAAGCGGAGTCACCTAGTGCAG | 8060 fluorescence intensity (a.u.)
41 | TTTGCATTTATCCGTTTTCTGGCTGAATCATTCCCTGCAACGGAGTCACCTAGTGCAG | 9420 fluorescence intensity (a.u.)
42 | CCAACTGTCCACAGTGTCACTCTGACCCATTTCGTTTATACGGAGTCACCTAGTGCAG | 8110 fluorescence intensity (a.u.)

For convenience, some entries already given:
Row | Sequence | binding signal
30 | GGCCGGTGATCCTTCCTTAATTTCCCTATCTAGCTTTGTCCGGAGTCACCTAGTGCAG | 11600 fluorescence intensity (a.u.)
31 | ACCAGGGCACATCCAGTGAAAGTCAAGCTTCCCTTGCCGTCGGAGTCACCTAGTGCAG | 8550 fluorescence intensity (a.u.)
32 | ATCACCATTTACTCCTATTGCCCTATTGGCATCACATCCACGGAGTCACCTAGTGCAG | 8890 fluorescence intensity (a.u.)
